Measurements reported in PubChem BioAssay AID1224830 (NIAID, 2016).

Purpose: 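Regulators of TLR4 signalling towards TNF-alpha in macrophage-like cells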 (primary screen)
Cell system: human THP-1 monocytic leukaemia cells, TNF dual-luciferase reporter clone, PMA-differentiated to macrophage-like cells
Knock-down reagent: siRNA pool against human genes, 50 nM
Timing: LPS for 4 h, given about 3 days after siRNA transfection
Conditions: bacterial LPS (TLR4 ligand), 10 ng/ml
Detection: 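TNF firefly reporter luminescence divided by renilla, normalised to the plate median, then turned into a robust z-score for each replicate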
Scale: TNF reporter robust z-score: higher = stronger TNF reporter response to LPS
Active means: 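Each well counts as active if its z-score is over 2.8 or under -1.5; controls are left without a call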
This is an unselected part of about 18,000 reagents. Over the whole deposit, about 2,900 (16%) are marked active. 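Calls are made per well; low scores hint the gene aids the LPS response, high scores that it dampens it.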 Entries without a mark were called inactive. Repeated entries: four replicate wells of each siRNA pool. No sequences are given here.

gene	TNF reporter robust z-score
FTSJ3	2.81 (active)
FTSJ3	0.7
FTSJ3	0.82
FTSJ3	0.64
LINC01599	-1.01
LINC01599	0.41
LINC01599	0.56
LINC01599	-0.4
INTS2	1.28
INTS2	3.54 (active)
INTS2	1.83
INTS2	1.6
C18orf32	0.41
C18orf32	-0.08
C18orf32	-0.65
C18orf32	0.23
ATP5F1D	-0.83
ATP5F1D	0.13
ATP5F1D	1.59
ATP5F1D	0.82
MED20	-1.11
MED20	0.17
MED20	0.14
MED20	0.51
TMCO2	-0.89
TMCO2	-0.35
TMCO2	0.96
TMCO2	-0.27
TMEM60	9.52 (active)
TMEM60	0.54
TMEM60	3.31 (active)
TMEM60	1.4
AXL	-0.51
AXL	1.44
AXL	0.72
AXL	0.15
CR1	-0.95
CR1	0.3
CR1	0.82
CR1	1.24
CCDC170	-0.76
CCDC170	-0.47
CCDC170	-0.16
CCDC170	-1.14
CYP1B1	0.6
CYP1B1	0.02
CYP1B1	1.38
CYP1B1	2.97 (active)
VPS72	-0.68
VPS72	0.42
VPS72	0.15
VPS72	0.55
BAG6	0.03
BAG6	0.22
BAG6	0.3
BAG6	0.42
PCDHGB4	1.55
PCDHGB4	0.79
PCDHGB4	2.45
PCDHGB4	2
SLC4A7	-1.14
SLC4A7	-1.34
SLC4A7	-1.02
SLC4A7	-1.33
OR2W5	-0.24
OR2W5	-0.37
OR2W5	-0.56
OR2W5	-1.72 (active)
COX7A2	-0.89
COX7A2	-0.57
COX7A2	-0.77
COX7A2	-0.82
TMEFF1	0.5
TMEFF1	0.57
TMEFF1	-0.2
TMEFF1	-0.82

Ordered by “TNF reporter robust z-score” (lowest first): some entries from above
gene	TNF reporter robust z-score
TMCO2	-0.89
TMCO2	-0.35
TMCO2	-0.27
MED20	0.14
MED20	0.51
TMEM60	0.54
TMCO2	0.96
TMEM60	9.52 (active)
